Laboratory results from PubChem BioAssay AID540275 (National Center for Advancing Translational Sciences (NCATS), 2011).
About 620 (0.19%) of roughly 320,000 compounds were called active. This list was built around the results that the source calls inconclusive (neither active nor inactive); the mix of calls is not that of the screen. Cut-off read from the data, not from the text of the source: active = activation above about 80%; inconclusive = between about 30% and that limit; inactive = weaker than that.

Protein sequences, listed by entry. Tags and fused reporters are not part of them.
UniProt Q8NER1, whole entry, looked up: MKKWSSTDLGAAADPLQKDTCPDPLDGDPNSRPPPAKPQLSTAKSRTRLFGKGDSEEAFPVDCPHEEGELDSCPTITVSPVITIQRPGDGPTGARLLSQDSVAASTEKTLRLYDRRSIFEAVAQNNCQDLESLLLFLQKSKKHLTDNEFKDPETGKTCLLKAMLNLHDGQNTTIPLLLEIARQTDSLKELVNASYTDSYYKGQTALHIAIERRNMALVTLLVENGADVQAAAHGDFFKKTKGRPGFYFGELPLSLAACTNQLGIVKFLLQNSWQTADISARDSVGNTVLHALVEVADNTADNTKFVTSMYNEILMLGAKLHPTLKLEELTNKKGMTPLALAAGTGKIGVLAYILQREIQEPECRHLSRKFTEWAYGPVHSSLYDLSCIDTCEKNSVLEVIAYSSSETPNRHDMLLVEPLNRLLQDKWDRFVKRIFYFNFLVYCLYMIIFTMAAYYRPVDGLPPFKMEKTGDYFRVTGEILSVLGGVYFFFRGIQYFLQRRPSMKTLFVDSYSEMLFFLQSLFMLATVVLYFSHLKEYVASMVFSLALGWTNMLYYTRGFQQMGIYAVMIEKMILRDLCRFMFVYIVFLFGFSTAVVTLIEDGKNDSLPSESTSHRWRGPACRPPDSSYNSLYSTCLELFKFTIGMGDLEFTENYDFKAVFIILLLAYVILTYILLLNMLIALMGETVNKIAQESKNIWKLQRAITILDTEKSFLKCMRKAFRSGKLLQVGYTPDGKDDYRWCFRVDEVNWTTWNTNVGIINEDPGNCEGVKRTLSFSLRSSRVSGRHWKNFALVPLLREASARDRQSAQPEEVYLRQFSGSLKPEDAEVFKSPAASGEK

These compounds were tested against Transient receptor potential cation channel subfamily V member 1 (Homo sapiens) (UniProt Q8NER1) (assay: HTS Assay for Compounds that Act as Agonists of the Vanilloid Receptor 1). Conditions: TRPV1-expressing cells, Fluo-8 calcium influx, agonist mode; at 8.33 µM, active compounds read high.
How it was run: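 Fluo-8 calcium influx in TRPV1-expressing cells, kinetic read (ex 480/em 520 nm). Compound added and read 3 min for agonist activity, followed by capsaicin at EC20 final and 2 min further read for enhancement.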
Note: 0% is about no effect.

SMILES | activation
CCCCn1nnnc1SCC(=O)NC1CCCCC1 | inactive: -7.2%
CCS(=O)(=O)N1CCN(c2ccccc2)CC1 | inactive: 1.15%
COc1ccc(CCC(=O)Nc2cccc(S(=O)(=O)N3CCCCCC3)c2)cc1OC | inconclusive: 38.8%
CCOc1cc(N(CC)CC)ccc1/C=C(/C#N)c1nc2ccccc2[nH]1 | inconclusive: 70.6%
C=C(C)c1cccc(C(C)(C)NC(=O)Nc2ccc3[nH]c(=O)[nH]c3c2)c1 | inconclusive: 54.3%
O=C(NCc1ccccc1)N1CCC(CO)(CCc2ccccc2)CC1 | inconclusive: 64.8%
Cc1ccc(-c2csc(NC(=O)CN3CCOCC3)n2)cc1 | inconclusive: 60.3%
COc1ccccc1C1CCN(Cc2cccc([N+](=O)[O-])c2)CC1 | inconclusive: 37.2%
CC1CCN(c2nc(/C=C/c3ccccc3)nc3ccccc23)CC1 | inactive: 28.7%
O=C(CN(Cc1ccc(Br)cc1)S(=O)(=O)c1ccccc1)NCc1ccncc1 | inconclusive: 57.6%
N=c1c(C(=O)NCc2ccco2)cc2c(=O)n3ccccc3nc2n1Cc1ccccc1 | inconclusive: 45.5%
O=C(CC(SCCO)c1ccc2c(c1)OCO2)c1cccs1 (centres undefined) | inconclusive: 43%
Oc1ccccc1N1CCN(C(=S)Nc2ccc(SC(F)F)cc2)CC1 | inconclusive: 36.9%
CC1(C)CC(=O)c2sc(NC(=O)c3ccc4ncsc4c3)nc2C1 | inconclusive: 68.5%
CCC1CN(C(=O)NCc2ccccc2)c2ccccc2O1 (centres undefined) | inconclusive: 33.4%
O=C(Nc1nc2c(Cl)ccc(Cl)c2s1)C1CC1 | inactive: -2.3%
Cc1noc(C)c1CC(=O)N1CCCC(C(=O)c2ccc(C(C)(C)C)cc2)C1 (centres undefined) | inconclusive: 63.2%
O=C(OCC(=O)C12CC3CC(CC(C3)C1)C2)c1ccc(CO)cc1 | inconclusive: 35.6%
NC(=S)N/N=C1\CCSc2ccc(Cl)cc21 | inactive: -4.99%
O=C(NC1CCCCC1)N(Cc1nc2ccccc2c(=O)[nH]1)C1CCCCC1 | inconclusive: 40.2%
CCOc1ccc(N(CC(=O)NCCc2ccc(F)cc2)S(=O)(=O)c2ccccc2)cc1 | inconclusive: 31.8%
CCC(C)(C)NC(=O)C(OC(=O)c1ccco1)c1ccccc1F (centres undefined) | inactive: 5.34%
COc1ccccc1NC(=O)COc1ccc(Br)cc1CO | inactive: 12.9%

Taken from above:
`CCOc1ccc(N(CC(=O)NCCc2ccc(F)cc2)S(=O)(=O)c2ccccc2)cc1` | activation: inconclusive: 31.8%
`N=c1c(C(=O)NCc2ccco2)cc2c(=O)n3ccccc3nc2n1Cc1ccccc1` | activation: inconclusive: 45.5%

Following part.

SMILES | activation
O=C(N/N=C/c1cccc(F)c1)c1ccc(Cl)cc1 | inconclusive: 78%
Cc1ccc(NC(=O)N2CCCC(c3nc(-c4ccc(F)cc4)no3)C2)cc1 (centres undefined) | inconclusive: 44.5%
COc1ccc(CC(=O)NC(C)CCc2ccccc2)cc1OC (centres undefined) | inconclusive: 52.4%
Cc1cccc(OCCC(=O)OCC(=O)Nc2c(C)nn(-c3ccccc3)c2C)c1 | inconclusive: 45.6%
CCOC(=O)c1cnc2ccccc2c1Nc1ccc2c(c1)OCCO2 | inconclusive: 56.8%
CCOC(=O)C1=C(c2ccccc2)NC(=S)NC1C (centres undefined) | inactive: -5.03%
CCC(C)NC(=O)c1cn(CC)c2ccc(S(=O)(=O)N3CCCCC3)cc2c1=O (centres undefined) | inconclusive: 40.9%
O=C(Nc1cccc(F)c1)c1ccc2c(c1)OCO2 | inconclusive: 66.7%
C#CCOCCOCCOCCNc1nc(N2CCN(C(=O)CCCCCCCCCCNC(=O)Cn3cc(C[C@@H](C)O)nn3)CC2)nc(N2CCN(C(=O)CCCCCCCCCCNC(=O)[C@H](CCCCN)n3cc(CCCC(=O)O)nn3)CC2)n1 | inactive: -0.0441%
OCCN1CCN(C(=S)Nc2ccc(Oc3ccccc3)cc2)CC1 | inconclusive: 47.2%
Cc1nn(Cc2ccc(F)cc2)c(Cl)c1/C=N/NC(=O)c1ccccc1 | inconclusive: 32.7%
CC(C)C(=O)Nc1ccc(C(=O)CN2C(=O)NC3(CCOc4ccccc43)C2=O)cc1 (centres undefined) | active: 90.9%
O=C(O)C1Cc2ccccc2CN1C(=O)CSc1nnc2ccccn12 (centres undefined) | inactive: 0.88%
Cc1cc(C)n(C(=O)c2cccc(S(=O)(=O)N3CCCCC3)c2)n1 | inconclusive: 30.1%
O=C1CCC(c2ccccc2)=NN1Cc1c(F)cccc1Cl | inconclusive: 44.5%
O=C(C1CCCN(S(=O)(=O)c2ccccc2)C1)N1CCCc2ccccc21 (centres undefined) | inconclusive: 59.3%
CCC(N=c1cc(-c2ccc(OC)cc2)oc2ccc(C)cc12)C(=O)O (centres undefined) | inconclusive: 34.8%
CCOC(=O)c1c(C)oc2c1c(CN1CCN(C(=O)OCC)CC1)c(O)c1ccccc12 | inconclusive: 57.4%
Cc1cccc(NC(=S)NCc2ccccc2Cl)c1C | inactive: 25%
CC(C)Oc1ccc(CNC(=S)N/N=C/c2cccnc2)cc1 | inconclusive: 33.8%
Cc1ccc(NC(=O)C(OC(=O)c2cc(C)oc2C)c2ccccc2)cc1 (centres undefined) | inconclusive: 33.4%
Cc1ccc(-n2nnnc2SCC(=O)c2c(N)n(C3CC3)c(=O)[nH]c2=O)cc1C | inconclusive: 57.8%
COc1ccc(CNC(=O)COC(=O)c2ccc(C)c(S(=O)(=O)N3CCOCC3)c2)cc1OC | inconclusive: 71.5%

SMILES | activation
CCc1nc(SCC(=O)NNC(=O)c2ccc(OC)cc2)c2ccccc2n1 | inactive: -1.53%
CC(OC(=O)CCc1cc(C(C)(C)C)c(O)c(C(C)(C)C)c1)C(=O)NC1CC1 (centres undefined) | inconclusive: 65.5%
CC(C)(C)C(=O)NC(=S)NNC(=O)C(c1ccccc1)c1ccccc1 | inconclusive: 30.4%
S=C(NCCC1=CCCCC1)Nc1ccc(Cl)cc1 | inconclusive: 72.1%
Cc1cccc2sc(N(CCN(C)C)C(=O)C3CCN(S(=O)(=O)c4cccs4)CC3)nc12 | inactive: 19.3%
CC(C)N(C(C)C)S(=O)(=O)c1ccc(NC(=O)c2cnccn2)cc1 | inconclusive: 54%
O=C(Nc1ccc(O)c(-c2nc3ccccc3s2)c1)C1=COCCO1 | inconclusive: 33.3%
COc1ccc(C2c3[nH]c4ccccc4c3CCN2Cc2cccn2-c2ncccn2)cc1C (centres undefined) | inactive: 6.97%
Cc1ccnc(N2CCCC(C(=O)Nc3ccc(C)c(C)c3)C2)n1 (centres undefined) | inconclusive: 52.6%
Cc1ccc(S(=O)(=O)N2CCN(C(=O)COC(=O)c3ccc(Cl)nc3)CC2)c(C)c1 | inactive: -5.63%
CC(C)Cn1nc(NC(=O)c2ccco2)c2cc3ccccc3nc21 | inconclusive: 69.3%
CC(C)c1ccc(NC(=O)C(c2ccccc2)N2CC(=O)Nc3ccccc32)cc1 (centres undefined) | inactive: 19.9%
COc1ccc(NC(=O)c2ccc(OC(F)F)cc2)cc1Cl | inconclusive: 63.6%
COc1ccc(-c2nn(-c3ccccc3C)cc2CNCc2cccnc2)cc1F | inconclusive: 54.5%
O=[N+]([O-])c1cccc(NNS(=O)(=O)c2ccccc2F)c1 | inactive: 0.0586%
COC(=O)c1nnn(-c2nonc2N)c1CSc1nc2ccccc2s1 | inactive: 2.68%
COc1ccc(OCc2cc(C(=O)N3CCCCCC3)no2)c(Cl)c1 | inactive: 7.44%
C=CCn1c(=S)[nH]c2scc(-c3ccc(C)o3)c2c1=O | inactive: -1.93%
COc1ccc(-c2ccc3c(c2)S(=O)(=O)c2cccc(C(=O)NC4CC4)c2C3=O)cc1OC | inactive: -0.558%
CC1CC(C)(C)NC(=S)N1CC(=O)N(C)Cc1ccccc1 (centres undefined) | inactive: 0.208%
CC(NC(=O)c1cc(-c2cccnc2)nc2ccc(Br)cc12)C1CCCO1 (centres undefined) | inactive: 1.58%
Cc1ccccc1NC(=O)N1CCCC(c2nc(-c3ccc(C(C)C)cc3)no2)C1 (centres undefined) | inactive: 2.04%
CN(C)C(=O)CSc1nc(-c2ccccc2)c(-c2ccccc2)o1 | inconclusive: 31.7%

Grouped by structure, those above with a tert-butyl group
SMILES | activation
Cc1noc(C)c1CC(=O)N1CCCC(C(=O)c2ccc(C(C)(C)C)cc2)C1 (centres undefined) | inconclusive: 63.2%
CC(OC(=O)CCc1cc(C(C)(C)C)c(O)c(C(C)(C)C)c1)C(=O)NC1CC1 (centres undefined) | inconclusive: 65.5%
CC(C)(C)C(=O)NC(=S)NNC(=O)C(c1ccccc1)c1ccccc1 | inconclusive: 30.4%

The list continues:

SMILES | activation
COc1ccc(S(=O)(=O)NCc2ccc3c(c2)OCO3)cc1C | inactive: 5.94%
Cc1cc([N+](=O)[O-])ccc1NC(=S)NC(=O)Cc1ccccc1 | inconclusive: 55.9%
CCN(CC)CCN(C(=O)/C=C/c1cccs1)c1nc2ccc(C)cc2s1 | inactive: -1.66%
O=C(/C=C/c1ccccc1[N+](=O)[O-])N1CCOCC1 | inconclusive: 46.6%
CN(C)CC(O)COC(c1ccc(Cl)cc1)c1ccc(Cl)cc1 (centres undefined) | inactive: 8.2%
CC(=O)c1cccc(Nc2nc(-c3cccc([N+](=O)[O-])c3)cs2)c1 | inactive: 7.75%
Cc1cccc(N2CCN(C(=O)CCCn3c(=O)c4cccn4c4cccnc43)CC2)c1C | inactive: -0.587%
COc1ccc(CNC(=O)CCSCc2cccc(Cl)c2)cc1 | inconclusive: 49.7%
O=C1C(Nc2ccccc2)=C(N2CCCCC2)C(=O)c2ccccc21 | inactive: 2.78%
O=C(NCCN1CCCC1=O)C1CCC(=O)N(CCc2ccc(Cl)cc2)C1 (centres undefined) | inactive: 2.16%
Cc1cc(NC(=O)CSCC(=O)N(C)Cc2cccc(Cl)c2)no1 | inconclusive: 39.1%
CC(C)OC(=O)c1sc2nc(-c3ccccc3)ccc2c1N | inactive: 8.72%
CCN(CC)CCCCCC(=O)Nc1ccccc1C(=O)Nc1ccccc1 | inactive: -1.6%
Cc1ccc(CNC(=O)C2CCCN(S(=O)(=O)N3CCC(C)CC3)C2)cc1 (centres undefined) | inconclusive: 31.6%
Cc1noc(C)c1/C=N/Nc1ccc2ccccc2n1 | inconclusive: 32.7%
CCOc1ccc(NC(=O)c2ccccc2OC)cc1 | inconclusive: 39.9%
COc1ccc(S(=O)(=O)NNC(=O)c2ccccc2-n2cccc2)cc1 | inactive: -0.858%
O=[N+]([O-])c1ccc(SCCc2ccccn2)cc1 | inconclusive: 35.8%
CCOC(=O)c1sc(NC(=O)c2cc3c(s2)CCC(C)C3)nc1C (centres undefined) | inconclusive: 61.8%
Cc1nc(N[C@@H](Cc2ccccc2)C(=O)O)c2oc3ccccc3c2n1 | inconclusive: 35.5%
